# Some of the results follow. Shown are side measurements of this screen, not its main read-out; they come without a call. The list favours compounds with an active or inconclusive main result. Words in brackets tell the shape of the fitted curve; partial curves, single points and poor fits give uncertain potencies.
# Assay: qHTS Assay for Lipid Storage Modulators in Drosophila S3 Cells;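 as to cell number change: cells counted by Cell Tracker Red CMTPX staining in the red channel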
# Details: BODIPY lipid droplet fluorescence, 18-24 h; for cell number change: measured here: cell count max response, cells fed with added oleic acid
# How it was run: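 Laser-scanning cytometry quantifies lipid droplet accumulation (500–530 nm total intensity; droplet/cell object ratio) in oleic acid-fed (400 uM added) Drosophila S3 cells treated with a concentration series. 20 uM Triacsin C defined 100% inhibition.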
# [1] = measured here: cell number channel AC50, cells fed with added oleic acid
# [2] = measured here: lipid fluorescence (Fed channel) AC50, cells fed with added oleic acid
Structure (SMILES),cell number change [%],AC50 [1],AC50 [2]
Cc1[nH]c2ccccc2c1/C=N/Nc1nc(Nc2ccccc2)nc(N2CCOCC2)n1,-50.2,"7.31 µM [falling, partial curve]","2.59 µM [falling, full curve]"
N#C/C(=C\c1cccs1)c1nc2ccccc2[nH]1,25.7,,"2.06 µM [rising, partial curve]"
COc1ccccc1N(CC(=O)Nc1ccc2c(c1)OCCO2)S(C)(=O)=O,5.89,,"29.1 µM [falling, single point]"
Nc1nc(Nc2ccccc2F)nc(NC2CCCCC2)c1[N+](=O)[O-],-51,"20.6 µM [falling, single point]","7.31 µM [falling, single point]"
CN(CC(=O)Nc1cccc(F)c1)C(=O)c1ccc2c(c1)S(=O)(=O)N=C1CCCCCN12,75,"11.6 µM [rising, partial curve]",
Cc1onc(-c2ccccc2)c1C(=O)Nc1nnc(C(C)(C)C)s1,-24.6,,"29.1 µM [rising, single point]"
COc1cccc(-c2nc3ccccc3c(=O)n2NC(=O)c2cccnc2Cl)c1,4.79,,"0.259 µM [rising, full curve, poor fit]"
CCCn1c(=O)c(C(=O)NCCCc2ccccc2)c(O)c2ccccc21,-12.9,,"0.651 µM [rising, single point]"
CCn1cc(/C=C(\NC(=O)c2ccccc2F)C(=O)NCCCN2CCOCC2)c2ccccc21,,,"2.06 µM [falling, partial curve]"
O=C(NCCc1ccccc1Cl)C1CCC(=O)N(Cc2cccc(C(F)(F)F)c2)C1 (stereo unspecified),-11.7,,"7.31 µM [falling, partial curve, poor fit]"
COc1ccc(CN(C(=O)CSc2nnc(-c3ccc(F)cc3)o2)c2ccc(F)cc2)cc1,3.81,,"7.31 µM [rising, partial curve, poor fit]"
Cc1ccc(OCCCCn2c(CO)nc3ccccc32)cc1,-32.3,"18.4 µM [falling, single point]","29.1 µM [falling, single point]"
CCN=c1scc(-c2cccs2)n1/N=C/c1cc(OC)ccc1O,-33.2,"29.1 µM [falling, single point]","0.231 µM [falling, full curve, poor fit]"
O=C1N/C(=N/N=C/c2ccc(O)cc2)SC1Cc1ccccc1 (stereo unspecified),23.5,,
COc1ccc(C(=O)c2cnc(/N=C/N(C)C)s2)cc1,,"0.092 µM [rising, full curve, poor fit]","5.17 µM [rising, single point]"
Cc1ccc(C(=O)N2CCN(c3ccc(C(F)(F)F)cn3)CC2)cc1,-9.62,"6.51 µM [falling, single point]",
C=CCn1c(SCC(=O)N2CCN(CCO)CC2)nc2sc3c(c2c1=O)CCC3,7.62,,
CCOC(=O)c1ccc(NC(=S)N2CCSC2c2c(F)cc(F)cc2F)cc1 (stereo unspecified),27.4,"0.58 µM [rising, full curve, poor fit]",
CC1(C)CC(=O)C=C(c2cccc(Cl)c2O)C1,-34.5,"10.3 µM [falling, partial curve]",

Structure (SMILES),cell number change [%],AC50 [1],AC50 [2]
COC(=O)C1=CN(Cc2ccc(OC)c(OC)c2)C=C(C(=O)OC)C1c1cccc(O)c1,14,,"6.51 µM [rising, partial curve, poor fit]"
CCn1c(SCc2cccc(C(=O)O)c2)nnc1-c1ccccc1,-20,,"23.1 µM [falling, single point]"
CCOc1nc(OCC)nc(-n2cc(-c3ccccc3)nn2)n1,18.3,,"1.84 µM [rising, full curve]"
O=C(NCC(c1ccco1)N1CCCCC1)c1ccc(COc2ccccc2)cc1 (stereo unspecified),124,"23.1 µM [rising, single point]",
O=C1CCCCN1CCC(=O)N1CCCC(Nc2ccccc2)C1 (stereo unspecified),12.6,,"20.6 µM [falling, partial curve]"
Clc1ccc(/C=N/Nc2nnc(-c3ncc[nH]3)c3ccccc23)cc1,-13.9,,"29.1 µM [falling, single point]"
Cc1cc(C)nc(SCC(=O)NC2=NN=C(c3ccc(Br)cc3)CS2)n1,-23.7,,"23.1 µM [falling, single point]"
Cc1ccn2cc(CNC(=O)c3ccc(Br)o3)nc2c1,69,"2.06 µM [rising, full curve]",
CCOC(=O)Cc1csc(NC(=O)c2ccco2)n1,128,"29.1 µM [rising, single point]",
CCc1ccc(C(=O)NC(=S)NCc2cccnc2)cc1,-19.5,,
O=C(COc1ccc(S(=O)(=O)N2CCOCC2)cc1)NCCCn1ccnc1,1.9,,"29.1 µM [falling, single point]"
Cc1nn2c(-n3ccnc3)c3c(nc2c1-c1ccccc1)CCC3,32.7,"32.6 µM [rising, single point]",
Cc1ccc(CN(C)C(=O)c2ccc(NS(=O)(=O)c3ccc4[nH]c(=O)[nH]c4c3)cc2)cc1,-50,"25.9 µM [falling, single point]","2.31 µM [rising, single point]"
O=C(Cn1cnc([N+](=O)[O-])c1)NCc1ccc(F)cc1,-14.9,,"6.51 µM [rising, single point]"
Nc1nc(-c2ccc(Cl)cc2)nn1C(=O)c1cccs1,42.7,"18.4 µM [rising, single point]",
COc1ccc(NC(=O)NCCc2c[nH]c3ccccc23)c(OC)c1,18.9,,
Cc1cc(C)c2cccc(N)c2n1,5.6,,"0.82 µM [falling, full curve, poor fit]"
Cc1ccc(NC(=O)CC2OC(=O)c3ccccc32)cc1S(=O)(=O)N1CCCCCC1 (stereo unspecified),24,"0.146 µM [falling, full curve, poor fit]",
CC(=O)N1CC2([N+](=O)[O-])CN(C(C)=O)CC([N+](=O)[O-])(C1)C2(C)C,44,"20.6 µM [rising, single point]",

# A second format for some results above:
Structure (SMILES) | cell number change [%] | AC50 [1] | AC50 [2]
O=C1CCCCN1CCC(=O)N1CCCC(Nc2ccccc2)C1 (stereo unspecified) | 12.6 |  | 20.6 µM [falling, partial curve]
Clc1ccc(/C=N/Nc2nnc(-c3ncc[nH]3)c3ccccc23)cc1 | -13.9 |  | 29.1 µM [falling, single point]
Cc1cc(C)nc(SCC(=O)NC2=NN=C(c3ccc(Br)cc3)CS2)n1 | -23.7 |  | 23.1 µM [falling, single point]

# Source: PubChem BioAssay AID2685 (National Center for Advancing Translational Sciences (NCATS), 2010)
